Experimental data as given in article PMC12387383 (Marine Drugs, 2025).

Assay: peptide made by a vendor
Details: whole synthesis, HPLC-MS

Row | Substance | purity (crude or final not stated)
1 | GYYLR | 98.259%
2 | IASYFDR | 98.187%
3 | SYFDRA | 98.522%
4 | VAFGRF | 98.026%

Ends that are not written are not given here.
